Measurements: the supplement of paper PMC4604168 (melanoma cell lines)
This is one part of the list. Single values are uncertain, as repeats are few or missing.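 Cells were imaged in 1,536-well plates, and nuclei stained with an antibody against cleaved PARP were counted against all DNA-stained nuclei to give the apoptosis fraction. Screening doses were chosen to leave most cells alive, and resting and induced cleaved-PARP levels differ strongly between cell lines.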

Experiments:
Assay in all cases: cleaved PARP positive nuclei fraction relative to DMSO control; melanoma cells; higher = more apoptosis
Conditions in all cases: library dose: low library concentration; 72 h
501Mel = test system: 501Mel
A101D = test system: A101D
A2058 = test system: A2058
A375 = test system: A375
C32 = test system: C32
CBRC013 = test system: CBRC013 (line from a melanoma biopsy)
CBRC014 = test system: CBRC014 (line from a melanoma biopsy)
CBRC016 = test system: CBRC016 (line from a melanoma biopsy)
CBRC017 = test system: CBRC017 (line from a melanoma biopsy)
CBRC034 = test system: CBRC034 (line from a melanoma biopsy)
COLO792 = test system: COLO792
COLO800 = test system: COLO800
COLO829 = test system: COLO829
G361 = test system: G361
IPC-298 = test system: IPC-298
IST-MEL1 = test system: IST-MEL1
LB2518-MEL = test system: LB2518-MEL
LOXIMVI = test system: LOXIMVI

| SMILES | cleaved PARP positive nuclei fraction (501Mel) [%] | cleaved PARP positive nuclei fraction (A101D) [%] | cleaved PARP positive nuclei fraction (A2058) [%] | cleaved PARP positive nuclei fraction (A375) [%] | cleaved PARP positive nuclei fraction (C32) [%] | cleaved PARP positive nuclei fraction (CBRC013) [%] | cleaved PARP positive nuclei fraction (CBRC014) [%] | cleaved PARP positive nuclei fraction (CBRC016) [%] | cleaved PARP positive nuclei fraction (CBRC017) [%] | cleaved PARP positive nuclei fraction (CBRC034) [%] | cleaved PARP positive nuclei fraction (COLO792) [%] | cleaved PARP positive nuclei fraction (COLO800) [%] | cleaved PARP positive nuclei fraction (COLO829) [%] | cleaved PARP positive nuclei fraction (G361) [%] | cleaved PARP positive nuclei fraction (IPC-298) [%] | cleaved PARP positive nuclei fraction (IST-MEL1) [%] | cleaved PARP positive nuclei fraction (LB2518-MEL) [%] | cleaved PARP positive nuclei fraction (LOXIMVI) [%] |
| --- | --- | --- | --- | --- | --- | --- | --- | --- | --- | --- | --- | --- | --- | --- | --- | --- | --- | --- |
| CC(C)(C)c1cnc(CSc2cnc(NC(=O)C3CCNCC3)s2)o1 + COc1ccc(COc2ccc(Cc3cnc(N)nc3N)cc2OC)cc1 [GW2580] (first compound 0.01 µM, partner dose 1 µM) | 75.3 | 111 | 52.8 | 12.8 | 145 | 70.4 | 90 | 46.3 | 65.8 | 180 | 97.7 | 67.9 | 107 | 156 | 51 | 235 | 84.2 | 112 |
| C[C@]1(c2nc3c(C(N)=O)cccc3[nH]2)CCCN1 [Veliparib] + COc1cc(N2CCC(N3CCN(C)CC3)CC2)ccc1Nc1ncc(Cl)c(Nc2ccccc2S(=O)(=O)C(C)C)n1 [NVP-TAE684] (first compound 1.4 µM, partner dose 0.08 µM) | 118 | 122 | 220 | 82.6 | 216 | 155 | 98.7 | 165 | 92.7 | 84.7 | 159 | 70.8 | 82.2 | 109 | 163 | 106 | 77.6 | 199 |
| NC(=O)Nc1cc(-c2cccc(F)c2)sc1C(=O)N[C@H]1CCCNC1 + COc1ccc2c(c1)CCC1C2CCC2(C)C(NCCCCCCN3C(=O)C=CC3=O)CCC12 [U73122] (first compound 0.02 µM, partner dose 0.4 µM) | 87.5 | 58 | 42.7 | 62.4 | 198 | 118 | 131 | 70.2 | 91.3 | 87.9 | 109 | 123 | 198 | 72.2 | 73.3 | 26.2 | 117 | 79.2 |
| O=C(CCCCCCC(=O)Nc1ccccc1)NO [vorinostat] + O=c1cc(-c2cccc3c2Sc2ccccc2S3)oc(N2CCOCC2)c1 [KU55933] (first compound 0.08 µM, partner dose 1 µM) | 167 | 150 | 76.6 | 96.5 | 116 | 172 | 86.4 | 60.2 | 84.6 | 121 | 78.4 | 64.1 | 78.6 | 112 | 107 | 26.9 | 82.5 | 25.1 |
| O=C(CCCCCCC(=O)Nc1ccccc1)NO [vorinostat] + COC(=O)c1sccc1S(=O)(=O)Nc1ccc(Nc2ccccc2)cc1OC [GSK0660] (first compound 0.08 µM, partner dose 1 µM) | 265 | 50.6 | 54.6 | 43.9 | 113 | 90.2 | 115 | 35.8 | 43.1 | 84 | 91.5 | 130 | 133 | 53.6 | 84.7 | 88.7 | 164 | 58.5 |
| Cn1c(Nc2ccc(C(F)(F)F)cc2)nc2cc(Oc3ccnc(-c4ncc(C(F)(F)F)[nH]4)c3)ccc21 + COc1ccc(-c2ccc3c(N4CCOCC4)nc(N4C[C@@H](C)O[C@@H](C)C4)nc3n2)cc1CO [KU0063794] (first compound 0.08 µM, partner dose 0.02 µM) | 120 | 151 | 197 | 304 | 112 | 187 | 114 | 96.9 | 82.2 | 94 | 286 | 39.1 | 137 | 223 | 135 | 42.2 | 309 | 108 |
| CO[C@@H]1[C@H](N(C)C(=O)c2ccccc2)C[C@H]2O[C@]1(C)n1c3ccccc3c3c4c(c5c6ccccc6n2c5c31)C(=O)NC4 [Midostaurin] + Oc1nc(-c2ccc(C(F)(F)F)cc2)nc2c1CSCC2 [XAV939] (first compound 0.08 µM, partner dose 2 µM) | 98.4 | 327 | 96.7 | 52.2 | 134 | 79.4 | 102 | 108 | 63.5 | 60.7 | 163 | 68 | 71 | 104 | 84.3 | 28.4 | 88 | 57 |
| Cc1nc(Nc2ncc(C(=O)Nc3c(C)cccc3Cl)s2)cc(N2CCN(CCO)CC2)n1 [dasatanib] + N#Cc1c(O)c2c(-c3ccc(-c4ccccc4O)cc3)csc2[nH]c1=O [A769662] (first compound 0.004 µM, partner dose 2 µM) | 57.6 | 201 | 316 | 77.6 | 195 | 289 | 115 | 30.7 | 94.3 | 347 | 234 | 124 | 96.9 | 158 | 167 | 50 | 94.7 | 261 |
| Cc1nc(Nc2ncc(C(=O)Nc3c(C)cccc3Cl)s2)cc(N2CCN(CCO)CC2)n1 [dasatanib] + O=C1NC(=O)/C(=C/c2ccc(-c3ccc(F)cc3O)o2)S1 [AS252424] (first compound 0.004 µM, partner dose 1 µM) | 95.1 | 152 | 317 | 115 | 302 | 126 | 110 | 61.3 | 82.9 | 60.6 | 87.1 | 117 | 128 | 146 | 43.6 | 89.8 | 200 | 96.2 |
| COCC[n+]1c2c(n(Cc3cnccn3)c1C)C(=O)c1ccccc1C2=O + O=C1NC(=O)/C(=C/c2ccc(-c3ccc(F)cc3O)o2)S1 [AS252424] (first compound 0.0004 µM, partner dose 1 µM) | 62.5 | 60.3 | 72.9 | 57 | 42.9 | 52.6 | 83.2 | 103 | 61.6 | 55.2 | 208 | 105 | 218 | 186 | 161 | 85.2 | 87.3 | 76.2 |
| Cc1cc(N2CCOCC2)cc2[nH]c(-c3c(NC[C@@H](O)c4cccc(Cl)c4)cc[nH]c3=O)nc12 + CCN(CC)CCCCNc1ncc2cc(-c3cc(OC)cc(OC)c3)c(NC(=O)NC(C)(C)C)nc2n1 [PD173074] (first compound 0.2 µM, partner dose 0.1 µM) | 282 | 113 | 158 | 127 | 157 | 77.9 | 92.3 | 80.7 | 84.2 | 96.6 | 219 | 223 | 81.9 | 139 | 27.1 | 118 | 59.3 | 109 |
| Cn1c(Nc2ccc(C(F)(F)F)cc2)nc2cc(Oc3ccnc(-c4ncc(C(F)(F)F)[nH]4)c3)ccc21 + O=S(=O)(c1ccccc1)N(CC(F)(F)F)c1ccc(C(O)(C(F)(F)F)C(F)(F)F)cc1 [T0901317] (first compound 0.08 µM, partner dose 1.4 µM) | 169 | 110 | 825 | 384 | 46.7 | 413 | 104 | 131 | 122 | 105 | 452 | 139 | 89.6 | 162 | 155 | 90.2 | 200 | 35.6 |
| C#Cc1cccc(Nc2ncnc3cc(OCCOC)c(OCCOC)cc23)c1 [erlotinib] + CCc1ccc(CCOc2ccc(CC3SC(=O)NC3=O)cc2)nc1 [pioglitazone] (first compound 0.8 µM, partner dose 2 µM) | 37.7 | 231 | 95.1 | 67.2 | 131 | 228 | 99 | 94.1 | 72.4 | 46.5 | 105 | 111 | 128 | 51.1 | 89.7 | 88.2 | 91.1 | 36.3 |
| Nc1cccc2c1CN(C1CCC(=O)NC1=O)C2=O (configuration not stated) [lenalidomide] + Oc1cc(-c2nc(-c3ccccc3)[nH]c2-c2ccncc2)ccc1Cl [L779450] (first compound 1 µM, partner dose 0.2 µM) | 91.4 | 120 | 181 | 65.1 | 56.9 | 153 | 95.5 | 74.7 | 101 | 81.9 | 118 | 197 | 82 | 183 | 31.7 | 57.8 | 71.4 | 39.9 |
| Nc1cccc2c1CN(C1CCC(=O)NC1=O)C2=O (configuration not stated) [lenalidomide] + COc1cc2ncnc(Nc3ccc(Oc4ccccc4)cc3)c2cc1OC [SrcI1] (first compound 1 µM, partner dose 2 µM) | 240 | 154 | 293 | 81.5 | 54.1 | 94.8 | 89.6 | 106 | 101 | 85.5 | 65.5 | 71 | 153 | 120 | 111 | 35.4 | 79.2 | 32.8 |
| Nc1cccc2c1CN(C1CCC(=O)NC1=O)C2=O (configuration not stated) [lenalidomide] + O=c1cc(-c2cccc3c2Sc2ccccc2S3)oc(N2CCOCC2)c1 [KU55933] (first compound 1 µM, partner dose 1 µM) | 71.1 | 211 | 73.5 | 203 | 72.1 | 74.9 | 89.5 | 80.1 | 90.2 | 76.3 | 122 | 133 | 76.6 | 24 | 216 | 107 | 64.9 | 48.8 |
| C=CCn1c(=O)c2cnc(Nc3ccc(N4CCN(C)CC4)cc3)nc2n1-c1cccc(C(C)(C)O)n1 + c1cc(-c2cnn3cc(-c4ccc(OCCN5CCCCC5)cc4)cnc23)ccn1 [Dorsomorphin] (first compound 0.02 µM, partner dose 0.4 µM) | 97.6 | 308 | 126 | 151 | 113 | 50 | 109 | 95.3 | 109 | 46.9 | 162 | 130 | 80.5 | 150 | 38.5 | 116 | 211 | 37.6 |
| CC1(C)NC(=O)N(c2ccc([N+](=O)[O-])c(C(F)(F)F)c2)C1=O [nilutamide] + COc1cc2ncnc(Nc3ccc(Oc4ccccc4)cc3)c2cc1OC [SrcI1] (first compound 1 µM, partner dose 2 µM) | 73.1 | 148 | 21.1 | 104 | 48.6 | 56.1 | 68.2 | 50.3 | 79.1 | 80.7 | 67.5 | 22.6 | 59.3 | 75.2 | 81.4 | 91.6 | 101 | 184 |
| C[C@@H]1CCN(C(=O)CC#N)C[C@@H]1N(C)c1ncnc2[nH]ccc12 + COc1ccc(-c2ccc3c(N4CCOCC4)nc(N4C[C@@H](C)O[C@@H](C)C4)nc3n2)cc1CO [KU0063794] (first compound 1 µM, partner dose 0.02 µM) | 120 | 188 | 135 | 43.2 | 104 | 60.3 | 92.9 | 76.5 | 142 | 28.9 | 80.4 | 245 | 151 | 32.3 | 123 | 42.7 | 53.6 | 41 |

Reformatted: results already given.
SMILES,cleaved PARP positive nuclei fraction (501Mel) [%],cleaved PARP positive nuclei fraction (A101D) [%],cleaved PARP positive nuclei fraction (A2058) [%],cleaved PARP positive nuclei fraction (A375) [%],cleaved PARP positive nuclei fraction (C32) [%],cleaved PARP positive nuclei fraction (CBRC013) [%],cleaved PARP positive nuclei fraction (CBRC014) [%],cleaved PARP positive nuclei fraction (CBRC016) [%],cleaved PARP positive nuclei fraction (CBRC017) [%],cleaved PARP positive nuclei fraction (CBRC034) [%],cleaved PARP positive nuclei fraction (COLO792) [%],cleaved PARP positive nuclei fraction (COLO800) [%],cleaved PARP positive nuclei fraction (COLO829) [%],cleaved PARP positive nuclei fraction (G361) [%],cleaved PARP positive nuclei fraction (IPC-298) [%],cleaved PARP positive nuclei fraction (IST-MEL1) [%],cleaved PARP positive nuclei fraction (LB2518-MEL) [%],cleaved PARP positive nuclei fraction (LOXIMVI) [%]
"CO[C@@H]1[C@H](N(C)C(=O)c2ccccc2)C[C@H]2O[C@]1(C)n1c3ccccc3c3c4c(c5c6ccccc6n2c5c31)C(=O)NC4 [Midostaurin] + Oc1nc(-c2ccc(C(F)(F)F)cc2)nc2c1CSCC2 [XAV939] (first compound 0.08 µM, partner dose 2 µM)",98.4,327,96.7,52.2,134,79.4,102,108,63.5,60.7,163,68,71,104,84.3,28.4,88,57
"C#Cc1cccc(Nc2ncnc3cc(OCCOC)c(OCCOC)cc23)c1 [erlotinib] + CCc1ccc(CCOc2ccc(CC3SC(=O)NC3=O)cc2)nc1 [pioglitazone] (first compound 0.8 µM, partner dose 2 µM)",37.7,231,95.1,67.2,131,228,99,94.1,72.4,46.5,105,111,128,51.1,89.7,88.2,91.1,36.3
